Laboratory results as given in the supplement of paper PMC8104966.
Some of the results follow. This data set is noisy: repeats of one test often differ as much as different tests do.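 U2OS cells carrying ACE2 were mixed with U2OS cells carrying full-length spike, and fusion was scored by imaging as the share of nuclei showing both cell types' fluorescent markers. A compound counts as an inhibitory hit when it is non-toxic and its fusion z-score falls below -3, meaning more than three standard deviations below the plate's DMSO wells.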

tested on: U2OS ACE2 x SARS-CoV-2 spike co-culture; assay: cell-cell fusion (fraction fused) z-score vs plate DMSO control; higher = more fusion; settings: 30 µM; 5 h; toxicity class: non-toxic, passed QC

Compound	cell-cell fusion (z-score)
COC(=O)C1=CO[C@@H](O)[C@@H]2C(CO)=CC[C@H]12 [Genipin]	inactive: 3.7
CC(C)Cn1cnc2c(N)nc3ccccc3c21.Cl	inactive: 1.71
COc1ccc(-c2coc3cc(OC(C)=O)cc(OC(C)=O)c3c2=O)cc1	inactive: 1.99
NCC(CC(=O)O)c1ccc(Cl)cc1 (stereo not drawn) [Baclofen]	inactive: 2.66
O=C(O)CCCC[C@@H]1CCSS1 (racemic) [(±)-alpha-Lipoic Acid]	inactive: 1.58
Cc1onc(-c2c(Cl)cccc2Cl)c1C(=O)N[C@@H]1C(=O)N2[C@@H]1SC(C)(C)[C@@H]2C(=O)[O-].[Na+]	inactive: 2.57
CN(C)CC[C@H](CSc1ccccc1)Nc1ccc(S(=O)(=O)NC(=O)c2ccc(N3CCN(Cc4ccccc4-c4ccc(Cl)cc4)CC3)cc2)cc1[N+](=O)[O-]	inactive: 1.84
CCOC(=O)CC(SP(=S)(OC)OC)C(=O)OCC (stereo not drawn)	inactive: 3.27
CC(=O)Oc1ccc(Cl)c2cccnc12	inactive: 0.493
CCn1cc(C(=O)O)c(=O)c2ccc(C)nc21 [Nalidixic acid]	inactive: 2.17
CC(=O)N[C@@H](Cc1c[nH]c2ccccc12)C(=O)O	inactive: 1.82
Cc1cc(O)c(C)c(O)c1C(=O)O	inactive: 1.69
COc1ccc(CN(CCN(C)C)c2ccccn2)cc1.O=C(O)/C=C\C(=O)O [Pyrilamine maleate]	inactive: 2.24
CC1(C)S[C@@H]2[C@H](NC(=O)C(C(=O)[O-])c3ccccc3)C(=O)N2[C@H]1C(=O)[O-].[Na+].[Na+] (stereo partly drawn) [Carbenicillin disodium]	inactive: 2.78
OC(c1ccccc1)(c1ccccc1)C12CC[N+](CCOCc3ccccc3)(CC1)CC2.[Br-] [Umeclidinium bromide]	inactive: 0.631
CNC(=O)c1cc(Oc2ccc(NC(=O)Nc3cc(C(C)(C)C)nn3-c3ccc4ncccc4c3)c(F)c2)ccn1 [DCC-2036 (Rebastinib)]	inactive: 1.64
CC(=O)Nc1c(I)c(NC(C)=O)c(I)c(C(=O)O)c1I	inactive: 0.458
Cl.O=C(COc1ccc(Cl)cc1)N1CCN(Cc2ccc3c(c2)OCO3)CC1	inactive: 0.58
Br.CN1CCC[C@@H]1Cc1c[nH]c2ccc(CCS(=O)(=O)c3ccccc3)cc12 [Eletriptan hydrobromide]	inactive: -1.14
COc1ccccc1Oc1c(NS(=O)(=O)c2ccc(C(C)(C)C)cc2)nc(-c2ncccn2)nc1OCCO [Bosentan]	inactive: 2.3
C[C@H]1O[C@@H](O[C@H]2[C@@H](O)C[C@H](O[C@H]3[C@@H](O)C[C@H](O[C@H]4CC[C@]5(C)C6C[C@@H](O)[C@]7(C)[C@@H](C8=CC(=O)OC8)CC[C@]7(O)C6CC[C@@H]5C4)O[C@@H]3C)O[C@@H]2C)C[C@H](O)[C@@H]1O (stereo partly drawn)	inactive: -1.29
NC(=O)c1cc(N2CC2)c([N+](=O)[O-])cc1[N+](=O)[O-]	inactive: 0.735
NC/C=C/C(=O)O [(E)-4-amino-2-butenoic acid]	inactive: -0.301
Nc1nc(NC2CC2)c2ncn([C@H]3C=C[C@@H](CO)C3)c2n1 [Abacavir]	inactive: 1.9
Cc1c(Cl)cccc1Nc1ccccc1C(=O)O	inactive: -0.585

Compound	cell-cell fusion (z-score)
CCCNC(=O)NS(=O)(=O)c1ccc(Cl)cc1 [Chlorpropamide]	inactive: 1.88
COc1cc2c(CCNC(C)=O)c[nH]c2cc1O [6-Hydroxymelatonin]	inactive: 2.04
CCn1c(-c2nonc2N)nc2c(C#CC(C)(C)O)ncc(OC[C@H]3CCCNC3)c21	inactive: 3.49
NCCCCCC(=O)O [6-Aminocaproic acid]	inactive: 1.68
COc1c2occc2cc2ccc(=O)oc12 [8-Methoxypsoralen]	inactive: 2.51
O=C(Nc1ncc([N+](=O)[O-])s1)c1ccccc1O [Tizoxanide]	inactive: 1.37
COc1cc(C)c2c(=O)cc(-c3ccccc3)oc2c1	inactive: 1.42
Cl.Cl.Cl.NCCCCNCCCN [Spermidine trihydrochloride]	inactive: 3
Cl.Cl.Cl.NCCCCNCCCN	inactive: 1.53
C=C(C)[C@H]1COc2cc3oc(=O)ccc3cc2O1	inactive: 2.29
N[C@H](C(=O)O)[C@H]1C[C@@H]1C(=O)O [(2S,1'S,2'S)-2-(carboxycyclopropyl)glycine]	inactive: 3.42
Nc1ccccc1NC(=O)c1ccc(CNc2nccc(-c3cccnc3)n2)cc1 [Mocetinostat (MGCD0103)]	inactive: 1.23
Cl.NCC(O)c1ccc(O)cc1 (racemic) [(±)-Octopamine hydrochloride]	inactive: 1.91
Cn1cc(C2=C(c3ccc(Cl)cc3Cl)C(=O)NC2=O)c2ccccc21	inactive: 3.59
COc1ccc(CCN2CCN(CCCc3ccccc3)CC2)cc1OC.Cl.Cl	inactive: 0.75
CC=CC1=C(C(=O)O)N2C(=O)[C@@H](NC(=O)[C@H](N)c3ccc(O)cc3)[C@H]2SC1.O [Cefprozil hydrate]	inactive: 1.16
O=c1[nH]c2ccccc2n1C1CCN(CCCC(c2ccc(F)cc2)c2ccc(F)cc2)CC1 [Pimozide]	active: -9.25
C=C(C)[C@@H]1CC[C@]2(C)CC[C@]3(C)[C@@H](CCC4[C@@]5(C)CC[C@H](O)C(C)(C)C5CC[C@]43C)C12 (stereo partly drawn)	inactive: 1.26
N[C@@H](Cc1cc(I)c(Oc2ccc(O)c(I)c2)c(I)c1)C(=O)[O-].[Na+] [LIOTHYRONINE (L- isomer) SODIUM]	inactive: -2.51
CN(C)C(=N)NC(=N)N.Cl	inactive: 1.8
CN(C)C(=N)NC(=N)N.Cl [Metformin hydrochloride]	inactive: 2.67
CC1=C(/C=C/C(C)=C/C=C/C(C)=C\C=C\C=C(C)/C=C/C=C(C)/C=C/C2=C(C)C(O)C(=O)CC2(C)C)C(C)(C)CC(=O)C1O (stereo not drawn) [Astaxanthin]	inactive: 1.84
CC(C)(CO)C(O)C(=O)NCCC(=O)NCCSSCCNC(=O)CCNC(=O)C(O)C(C)(C)CO (stereo not drawn)	inactive: 1.15
CNNCc1ccc(C(=O)NC(C)C)cc1	inactive: 2.79
Cc1cn([C@H]2C=C[C@@H](CO)O2)c(=O)[nH]c1=O [Stavudine]	inactive: 1.18

Compound	cell-cell fusion (z-score)
CCC1=C[C@@H]2C[N@](C1)Cc1c([nH]c3ccccc13)[C@@](C(=O)OC)(c1cc3c(cc1OC)N(C)[C@H]1[C@@](O)(C(=O)OC)[C@H](OC(C)=O)[C@]4(CC)C=CCN5CC[C@@]31[C@H]54)C2 [Vinorelbine (Navelbine)]	inactive: -0.9
COC[C@H]1C[C@@H](c2ncc(-c3ccc4c(c3)COc3cc5c(ccc6[nH]c([C@@H]7CC[C@H](C)N7C(=O)[C@@H](NC(=O)OC)C(C)C)nc65)cc3-4)[nH]2)N(C(=O)[C@H](NC(=O)OC)c2ccccc2)C1 [Velpatasvir]	inactive: 3.41
NCCc1ccc(O)cc1 [Tyloxapol]	inactive: 1.5
NCCc1ccc(O)cc1	inactive: 1.99
C[N+](C)(C)CC(O)CC(=O)O.[Cl-] (stereo not drawn)	inactive: 1.68
CN1CCCN=C1/C=C/c1cccs1.O=C(O)c1cc2ccccc2c(Cc2c(O)c(C(=O)O)cc3ccccc23)c1O	inactive: 2.92
CC(=O)Nc1ccc(CC(=O)O)cc1	inactive: 1.7
CC1(C)O[C@H]2CC(=O)OC[C@]23[C@H]2CC[C@@]4(C)[C@H](c5ccoc5)OC(=O)[C@H]5O[C@]54[C@]2(C)C(=O)C[C@@H]13	inactive: 0.324
CN(C)CC/C=C1/c2ccccc2COc2ccc(CC(=O)O)cc21.Cl [Olopatadine hydrochloride]	inactive: 2.52
CCCS(=O)(=O)Nc1ccc(F)c(C(=O)c2c[nH]c3ncc(Cl)cc23)c1F	inactive: 0.292
CC1(C)S[C@@H]2[C@H](NC(=O)C(C(=O)[O-])c3ccccc3)C(=O)N2[C@H]1C(=O)[O-].[Na+].[Na+] (stereo partly drawn)	inactive: 0.544
CC(=O)OCC1=C(C(=O)O)N2C(=O)[C@@H](N)C2SC1 (stereo partly drawn)	inactive: 3.19
CC(=O)NCCCCCC(=O)O	inactive: 3.89
N[C@H]1CONC1=O [L-Cycloserine]	inactive: 2.24
N[C@H]1CONC1=O	inactive: 4.28
COc1cc2ncnc(Nc3cccc(Br)c3)c2cc1OC.Cl	inactive: 1.75
CCCCc1nc2cc(/C=C/C(=O)NO)ccc2n1CCN(CC)CC [SB939 (Pracinostat)]	inactive: 2.07
N[C@@]1(C(=O)O)CC[C@@H](C(=O)O)C1 [trans-(±)-ACPD]	inactive: 1.88
O=C(O)c1ccccc1OP(=O)(O)O	inactive: 0.259
CC(O)Cn1cnc2c1c(=O)n(C)c(=O)n2C (stereo not drawn)	inactive: 2
COc1ccc2c(c1OC)C(=O)O[C@H]2[C@H]1c2c(cc3c(c2OC)OCO3)CCN1C.Cl	inactive: 1.51
Cc1cc2nc3c(=O)[nH]c(=O)nc-3n(C[C@H](O)[C@H](O)[C@H](O)CO)c2cc1C [Riboflavin]	inactive: 4.15
CN/C(=C\[N+](=O)[O-])NCCSCc1csc(CN(C)C)n1	inactive: 3.16

18 entries from above, in CSV form.
Compound,cell-cell fusion (z-score)
CN1CCCN=C1/C=C/c1cccs1.O=C(O)c1cc2ccccc2c(Cc2c(O)c(C(=O)O)cc3ccccc23)c1O,inactive: 2.92
CC(=O)Nc1ccc(CC(=O)O)cc1,inactive: 1.7
CC1(C)O[C@H]2CC(=O)OC[C@]23[C@H]2CC[C@@]4(C)[C@H](c5ccoc5)OC(=O)[C@H]5O[C@]54[C@]2(C)C(=O)C[C@@H]13,inactive: 0.324
CN(C)CC/C=C1/c2ccccc2COc2ccc(CC(=O)O)cc21.Cl [Olopatadine hydrochloride],inactive: 2.52
CCCS(=O)(=O)Nc1ccc(F)c(C(=O)c2c[nH]c3ncc(Cl)cc23)c1F,inactive: 0.292
CC1(C)S[C@@H]2[C@H](NC(=O)C(C(=O)[O-])c3ccccc3)C(=O)N2[C@H]1C(=O)[O-].[Na+].[Na+] (stereo partly drawn),inactive: 0.544
CC(=O)OCC1=C(C(=O)O)N2C(=O)[C@@H](N)C2SC1 (stereo partly drawn),inactive: 3.19
CC(=O)NCCCCCC(=O)O,inactive: 3.89
N[C@H]1CONC1=O [L-Cycloserine],inactive: 2.24
N[C@H]1CONC1=O,inactive: 4.28
COc1cc2ncnc(Nc3cccc(Br)c3)c2cc1OC.Cl,inactive: 1.75
CCCCc1nc2cc(/C=C/C(=O)NO)ccc2n1CCN(CC)CC [SB939 (Pracinostat)],inactive: 2.07
N[C@@]1(C(=O)O)CC[C@@H](C(=O)O)C1 [trans-(±)-ACPD],inactive: 1.88
O=C(O)c1ccccc1OP(=O)(O)O,inactive: 0.259
CC(O)Cn1cnc2c1c(=O)n(C)c(=O)n2C (stereo not drawn),inactive: 2
COc1ccc2c(c1OC)C(=O)O[C@H]2[C@H]1c2c(cc3c(c2OC)OCO3)CCN1C.Cl,inactive: 1.51
Cc1cc2nc3c(=O)[nH]c(=O)nc-3n(C[C@H](O)[C@H](O)[C@H](O)CO)c2cc1C [Riboflavin],inactive: 4.15
CN/C(=C\[N+](=O)[O-])NCCSCc1csc(CN(C)C)n1,inactive: 3.16

2 entries from above, field by field.
Cl.Cl.Cl.NCCCCNCCCN
  cell-cell fusion (z-score): inactive: 1.53
C=C(C)[C@@H]1CC[C@]2(C)CC[C@]3(C)[C@@H](CCC4[C@@]5(C)CC[C@H](O)C(C)(C)C5CC[C@]43C)C12 (stereo partly drawn)
  cell-cell fusion (z-score): inactive: 1.26
